Assay results published in PubChem BioAssay AID2685 (National Center for Advancing Translational Sciences (NCATS), 2010).
The other results are listed elsewhere or left out. These are further read-outs of the screen, such as a control signal, another cell line or another target. No call is given for them. The list favours compounds with an active or inconclusive main result. The note in brackets gives the kind of curve behind each potency; many fits are weak.

Assay: qHTS Assay for Lipid Storage Modulators in Drosophila S3 Cells;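 as to cell number change: cells counted by Cell Tracker Red CMTPX staining in the red channel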
Conditions: BODIPY lipid droplet fluorescence, 18-24 h; for cell number change: measured here: cell count max response, cells fed with added oleic acid
Procedure, shortened: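 Laser-scanning cytometry quantifies lipid droplet accumulation (500–530 nm total intensity; droplet/cell object ratio) in oleic acid-fed (400 uM added) Drosophila S3 cells treated with a concentration series. 20 uM Triacsin C defined 100% inhibition.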

[1] = measured here: lipid fluorescence (Fed channel) AC50, cells fed with added oleic acid
[2] = measured here: cell number channel AC50, cells fed with added oleic acid

SMILES | cell number change [%] | AC50 [1] | AC50 [2]
Cc1ccc2[nH]c(=O)c(CN(C(=O)c3cccs3)c3ccccc3)cc2c1 | 7.68 | 2.59 µM [rising, single point] | 
COC(=O)c1cn(C)c2ccc(S(=O)(=O)N3CCOCC3)cc2c1=O | 12.4 |  | 
CCCOc1ccc(C(=O)CCC(=O)OCC(=O)Nc2cccc(S(N)(=O)=O)c2)cc1 | 12 |  | 
Cc1ccc(-c2c(C(=O)NCc3ccc(F)cc3)oc(=O)c3ccccc23)cc1 | 25.9 |  | 
Cc1ccc(C(=O)O/N=C(\N)c2cccnc2)cc1[N+](=O)[O-] | 26.6 | 4.61 µM [rising, partial curve, poor fit] | 1.46 µM [falling, full curve]
CC(C)c1ccc(Nc2cnn(C34CC5CC(CC(CC(=O)O)(C5)C3)C4)c(=O)c2Cl)cc1 | -33.4 | 29.1 µM [falling, single point] | 3.66 µM [falling, full curve]
Cc1cc(C(=O)N(C)Cc2c(F)cccc2Cl)c2ccccc2n1 |  | 4.11 µM [falling, partial curve] | 
O=C(COc1ncnc2scc(-c3ccccc3)c12)NCCN1C(=O)CSC1=O |  | 5.17 µM [falling, single point] | 
CCOC(=O)c1ccc(CNC(=O)Cn2nnc(-c3ccc(C)cc3)n2)o1 | -10.7 | 1.64 µM [falling, partial curve] | 
Cc1cc(NC(=O)CCC(=O)N(CC(=O)NC2CCCC2)Cc2ccccc2Cl)no1 | -3.53 | 18.4 µM [rising, single point] | 
CS(=O)(=O)Nc1ccc(C(=O)NCCSCc2ccco2)cc1 |  | 0.0058 µM [falling, full curve, poor fit] | 
CCSCc1nnc(SCC(=O)c2ccc(OC)cc2)n1C | -0.906 | 5.8 µM [falling, single point] | 
CCN(c1ccccc1)S(=O)(=O)c1ccc2c(c1)CCCN2C(C)=O | 3.23 | 0.651 µM [falling, single point] | 
CC(=O)c1ccccc1OC(=O)COc1ccc(Cl)cc1C | -8.51 |  | 
O=C(O)CCC(NC(=O)c1cncc(O)c1)C(=O)O (stereo not given) | -51.3 | 5.8 µM [falling, full curve] | 2.06 µM [falling, full curve]
O=c1[nH]cnc2sc3c(c12)CCCCC3 | -38.4 |  | 1.84 µM [falling, full curve]
COc1ccccc1N1CCN(C(=O)C(=O)c2cn(CC(=O)N3CCCCCC3)c3ccccc23)CC1 |  | 14.6 µM [falling, partial curve] | 
O=C(COC(=O)c1ccc(Br)o1)NCc1ccc(F)cc1 | 5 | 0.0326 µM [rising, full curve, poor fit] | 
COc1ccc(C(=O)C2CCCN(Cc3cccn3-c3nccs3)C2)cc1OC (stereo not given) |  | 8.2 µM [rising, partial curve] | 

SMILES | cell number change [%] | AC50 [1] | AC50 [2]
Cc1cccc(NC(=O)c2nc[nH]c2C(=O)N[C@H](C)c2ccccc2)c1 | -45.1 |  | 0.116 µM [falling, full curve, poor fit]
N#Cc1ccccc1Sc1ccccc1C(=O)OCc1nnc(-c2ccccc2)o1 | -65.5 | 29.1 µM [falling, single point] | 29.1 µM [falling, single point]
CSc1nc(N)nc(SCC(=O)Nc2cccc(F)c2)c1C#N | -34.2 | 20.6 µM [falling, partial curve] | 25.9 µM [falling, partial curve, poor fit]
CCOC(=O)c1c(C)[nH]c(C(=O)Cn2c(=O)oc3ccccc32)c1C |  | 4.61 µM [rising, single point] | 
CC(C)(C)c1ccc(OC2=CS(=O)(=O)c3ccccc32)cc1 | -29.7 | 29.1 µM [rising, single point] | 
O=S(=O)(Nc1nc2ccccc2nc1N1CCN(CCO)CC1)c1cc(F)ccc1F | 9.16 | 29.1 µM [rising, single point] | 
COc1ccc(Nc2nc(C)nc3sc4c(c23)CCC4)cc1O |  | 0.58 µM [rising, single point] | 0.651 µM [rising, single point]
Cc1ccc(-n2c(SCC(=O)Nc3cc(C)on3)nc3ccccc3c2=O)cc1 | 49.1 | 0.0731 µM [rising, full curve] | 0.082 µM [rising, full curve, poor fit]
CCN(CC)C(=O)CNC(=O)Cc1ccc(Cl)cc1 | -4.72 | 29.1 µM [falling, single point] | 
CCOC(=O)c1c(N)n(C2CC(C)(C)NC(C)(C)C2)c2nc3ccccc3nc12 | 11.4 | 0.13 µM [falling, full curve, poor fit] | 
C=CCn1c(SCc2cccc3ccccc23)nnc1-c1cccnc1 | -32.8 | 29.1 µM [falling, single point] | 23.1 µM [falling, single point]
COc1ccccc1-n1nnnc1SCc1ccccc1 |  | 6.51 µM [rising, single point] | 6.51 µM [rising, single point]
O=C(CCn1cnnn1)N1CCCC(Nc2ccc(F)cc2)C1 (stereo not given) |  | 29.1 µM [rising, single point] | 
O=c1cc(/C=C/c2ccccc2)oc2ccccc12 | 140 | 9.2 µM [rising, partial curve] | 6.51 µM [rising, full curve]
Cc1cc(C)nc(NS(=O)(=O)c2ccc(NC(=O)Cn3c(=O)oc4ccccc43)cc2)n1 | -17.5 | 6.51 µM [rising, full curve] | 
COc1cc2[nH]c(=S)n(CC3CCCO3)c(=O)c2cc1OC (stereo not given) | 3.2 | 0.411 µM [rising, full curve] | 
COCCn1c(SCc2ccccc2Cl)nc2c1c(=O)[nH]c(=O)n2C | -20.8 |  | 
O=C(NCC1CCCO1)c1csc2c1CCCC2 (stereo not given) | -41.1 |  | 
CN(C)CCN(Cc1ccco1)C(=O)c1cc2c(Cl)nc3ccccc3c2s1 |  | 1.64 µM [rising, partial curve] | 

2 records drawn at random from those above:
SMILES | cell number change [%] | AC50 [1] | AC50 [2]
CN(C)CCN(Cc1ccco1)C(=O)c1cc2c(Cl)nc3ccccc3c2s1 |  | 1.64 µM [rising, partial curve] | 
COc1cc2[nH]c(=S)n(CC3CCCO3)c(=O)c2cc1OC (stereo not given) | 3.2 | 0.411 µM [rising, full curve] | 
